Data as given in PubChem BioAssay AID1259308 (NCATS, 2017)

Aim: 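Knock-downs that increase output of a recombinant reporter protein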 (primary screen)
Cell system: human HEK293 embryonic kidney cells stably expressing firefly luciferase (HEK-CMV-Luc2-Hygro)
Reagents: single siRNA against human genes, 0.8 pmol siRNA per well
Duration: 72 h
Read-out: 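Reporter luminescence and viable-cell signal on separate replicate plates, given as percent of non-targeting control and median/MAD z-scores, plus per-cell luciferase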
Direction: total luciferase, z-score and total luciferase, % of control: higher = more reporter protein produced
Hit rule: 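Active when the median/MAD z-score for overall luciferase is greater than 3; a gene was taken forward for validation with new siRNAs if at least two of its three siRNAs passed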
Calls: active = raised luciferase; inactive = no rise
The whole screen tested about 59,000 reagents; this is a random part of them. About 1,510 of them (2.6%) count as active. 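Calls use total luciferase alone and ignore viability, so some active siRNAs may act by altering cell number.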 Reagents against one gene are numbered here. Further read-outs or replicates are left out here.

| gene knocked down | reagent | total luciferase, z-score | total luciferase, % of control | call |
| --- | --- | --- | --- | --- |
| MED24 | 1 | -0.66 | 68.8 | inactive |
| MED24 | 2 | -0.915 | 63.7 | inactive |
| MED24 | 3 | -0.447 | 73 | inactive |
| CDH7 | 1 | -1.35 | 55 | inactive |
| CDH7 | 2 | 0.79 | 97.6 | inactive |
| CDH7 | 3 | -0.564 | 70.7 | inactive |
| GCSAML | 1 | 3.23 | 146 | active |
| GCSAML | 2 | -0.873 | 64.5 | inactive |
| GCSAML | 3 | -0.563 | 70.7 | inactive |
| BHMT | 1 | -0.289 | 76.1 | inactive |
| BHMT | 2 | 0.148 | 84.8 | inactive |
| BHMT | 3 | -1.13 | 59.3 | inactive |
| BIRC8 | 1 | 0.0656 | 83.2 | inactive |
| BIRC8 | 2 | -0.536 | 71.2 | inactive |
| BIRC8 | 3 | 2.39 | 129 | inactive |
| VPS26C | 1 | 1.42 | 110 | inactive |
| VPS26C | 2 | 0.506 | 92 | inactive |
| VPS26C | 3 | 2.56 | 133 | inactive |
| TOMM40L | 1 | 0.855 | 98.9 | inactive |
| TOMM40L | 2 | 0.494 | 91.7 | inactive |
| TOMM40L | 3 | 0.309 | 88 | inactive |
| SLC67A1-AS | 1 | -0.0266 | 81.4 | inactive |
| SLC67A1-AS | 2 | -0.776 | 66.5 | inactive |
| SLC67A1-AS | 3 | -1.18 | 58.3 | inactive |
| TBC1D32 | 1 | -0.921 | 63.6 | inactive |
| TBC1D32 | 2 | 0.42 | 90.2 | inactive |
| TBC1D32 | 3 | 2.32 | 128 | inactive |
| LINC00330 | 1 | 0.52 | 92.2 | inactive |
| LINC00330 | 2 | -0.0985 | 79.9 | inactive |
| LINC00330 | 3 | -1.55 | 51.1 | inactive |
| LINC00886 | 1 | 0.366 | 89.2 | inactive |
| LINC00886 | 2 | -0.71 | 67.8 | inactive |
| LINC00886 | 3 | -1.26 | 56.9 | inactive |
| TMEM222 | 1 | -0.152 | 78.9 | inactive |
| TMEM222 | 2 | 0.29 | 87.7 | inactive |
| TMEM222 | 3 | -0.273 | 76.5 | inactive |
| PRKCSH | 1 | -1.04 | 61.2 | inactive |
| PRKCSH | 2 | -0.536 | 71.2 | inactive |
| PRKCSH | 3 | -1.71 | 47.8 | inactive |
| DIS3L | 1 | 2.32 | 128 | inactive |
| DIS3L | 2 | 0.144 | 84.7 | inactive |
| DIS3L | 3 | 0.592 | 93.7 | inactive |
| PIPOX | 1 | -0.0982 | 79.9 | inactive |
| PIPOX | 2 | 0.11 | 84.1 | inactive |
| PIPOX | 3 | 0.155 | 85 | inactive |
| LYZL4 | 1 | -1.15 | 59.1 | inactive |
| LYZL4 | 2 | 0.521 | 92.2 | inactive |
| LYZL4 | 3 | 2.12 | 124 | inactive |
| SETDB2 | 1 | -0.693 | 68.1 | inactive |
| SETDB2 | 2 | -1.35 | 54.9 | inactive |
| SETDB2 | 3 | -1.54 | 51.2 | inactive |
| CYRIA | 1 | -1.12 | 59.5 | inactive |
| CYRIA | 2 | 0.968 | 101 | inactive |
| CYRIA | 3 | 0.443 | 90.7 | inactive |
| MPHOSPH6 | 1 | -0.295 | 76 | inactive |
| MPHOSPH6 | 2 | 0.359 | 89 | inactive |
| MPHOSPH6 | 3 | 0.93 | 100 | inactive |
| FAM171A1 | 1 | -0.0661 | 80.6 | inactive |
| FAM171A1 | 2 | -0.317 | 75.6 | inactive |
| FAM171A1 | 3 | 1.14 | 105 | inactive |
| TCAP | 1 | 0.475 | 91.3 | inactive |
| TCAP | 2 | -0.477 | 72.4 | inactive |
| TCAP | 3 | 1.13 | 104 | inactive |
| GLI1 | 1 | -0.374 | 74.4 | inactive |
| GLI1 | 2 | 0.211 | 86.1 | inactive |
| GLI1 | 3 | -1.7 | 48.1 | inactive |
| DEFA1 | 1 | 0.114 | 84.1 | inactive |
| DEFA1 | 2 | 0.139 | 84.7 | inactive |
| DEFA1 | 3 | -0.496 | 72 | inactive |
| PPP1R1B | 1 | 0.331 | 88.5 | inactive |
| PPP1R1B | 2 | -0.519 | 71.6 | inactive |
| PPP1R1B | 3 | -0.993 | 62.1 | inactive |
| ZNF184 | 1 | -0.28 | 76.3 | inactive |
| ZNF184 | 2 | 1.34 | 109 | inactive |
| ZNF184 | 3 | -0.64 | 69.1 | inactive |

Hits (from the list above):
| gene knocked down | reagent | total luciferase, z-score | total luciferase, % of control | call |
| --- | --- | --- | --- | --- |
| GCSAML | 1 | 3.23 | 146 | active |
